According to patent US20120142766A1, “SUBSTITUTED 1,3-DIOXANES AND THEIR USES” (EVOLVA SA, priority 2007, published 2012):
At least one structure is not confirmed: it was looked up by name or label, or the drawing left a doubt.

Assays:
[1] = system: New Zealand Rabbit platelet rich plasma; test: TP receptor platelet aggregation, rabbit (U-46619-induced); type: cell-based; conditions: Table 2
Protocol: Thrombosis Research 33:277-288.
TP Receptor Platelet Aggregation—Rabbit:
New Zealand Rabbit (2.75±0.25 kg) platelet rich plasma
Assay: Inhibition of 1.5 μM U-46619-induced platelet aggregation Incubation Time, Temp: 5 minutes at 37° C. Incubation Buffer Trisodium Citrate (0.13 M)-treated platelet rich plasma
Time of Assessment: 5 minutes
Quantification Method Optical Density Change

[2] = target: T1, Thromboxane synthase (Homo sapiens, UniProt P24557); test: Human platelet thromboxane synthase assay; type: biochemical; conditions: Table 2
T1 construct: Human Platelet Thromboxane Synthase Assay; from tissue; host or cells: human platelets
T1 sequence (P24557 1-533): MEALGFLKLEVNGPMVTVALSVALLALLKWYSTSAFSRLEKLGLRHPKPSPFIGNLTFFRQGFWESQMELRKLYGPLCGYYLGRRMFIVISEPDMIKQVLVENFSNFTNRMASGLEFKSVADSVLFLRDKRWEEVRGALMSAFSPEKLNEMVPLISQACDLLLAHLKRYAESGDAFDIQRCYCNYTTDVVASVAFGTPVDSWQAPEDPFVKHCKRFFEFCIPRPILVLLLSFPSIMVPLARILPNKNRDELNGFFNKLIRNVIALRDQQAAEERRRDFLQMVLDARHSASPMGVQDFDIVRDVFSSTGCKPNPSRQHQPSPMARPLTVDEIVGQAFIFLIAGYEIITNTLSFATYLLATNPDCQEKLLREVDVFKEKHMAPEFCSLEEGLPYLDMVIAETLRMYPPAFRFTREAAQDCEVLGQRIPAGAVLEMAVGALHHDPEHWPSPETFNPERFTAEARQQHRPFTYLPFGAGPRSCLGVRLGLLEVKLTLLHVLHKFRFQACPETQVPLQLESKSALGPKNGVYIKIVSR
Protocol: The compounds were tested for thromboxane synthase inhibition essentially as described by Borsch-Haubold A G, Pasquet S, Watson S P. (1998) Direct inhibition of cyclooxygenase-1 and -2 by the kinase inhibitors SB 203580 and PD 98059. […] 1. Imidazole derivatives. J Med. Chem. (10):1139-48 according to the following:
Pre-incubation time, temp: 15 minutes at 25° C. Incubation time, temp: 3 minutes at 25° C.
Incubation Buffer: 10 mM Tris-HCl, pH 7.4
Quantification Method: EIA quantification of TxB2

[3] = system: arterial thrombosis in a mouse model; test: Arterial thrombosis mouse model (FeCl3 on femoral artery); type: in vivo; conditions: dose not given
Protocol: The solutions are diluted 3.3-fold in saline and 100 μl/25 g is injected. Thus, the above-mentioned doses of 100 and 300 mg/kg of compound correspond to final doses of 30 and 100 mg/kg.
During the experiments, a soluble salt of the drug is provided (potassium salt of compound C), diluted in saline. Of this formulation, 100 μl/25 g is injected i.v. in the tail vein (dose of 100 mg/kg).
Solutions are injected (100 μl/25 g body weight) i.v. in the tail vein over 2 min to obtain doses of each compound of 30 mg/kg and 100 mg/kg. Aspirin is given the same way at a dose of 200 mg/kg. Clopidogrel is administered by oral gavage at a dose of 20 mg/kg at 6-7 hours prior to the experiment. The animals assigned to each group are matched for body weight. Mice are typically 8-10 weeks old males and are in a 100% Swiss genetic background.
The flow in each image is expressed as a percentage of that at the contralateral side, and data are averaged for all 120 images to determine total flow. The same analysis is performed for 10 min intervals (which gives essentially the same information as the area under the curve). […] Flow before treatment is recorded as 100%, and that in occluded arteries as 0%. At the end of the experiment, blood is collected on 0.01M citrate by heart puncture for determination of blood cell counts. […]

[4] = target: T2, Human Recombinant (E. coli) PPARgamma (Homo sapiens, UniProt P37231); test: PPAR gamma binding assay ([3H]-rosiglitazone); conditions: summary of Table 3
T2 construct: host or cells: E. coli
T2 sequence (P37231 1-505): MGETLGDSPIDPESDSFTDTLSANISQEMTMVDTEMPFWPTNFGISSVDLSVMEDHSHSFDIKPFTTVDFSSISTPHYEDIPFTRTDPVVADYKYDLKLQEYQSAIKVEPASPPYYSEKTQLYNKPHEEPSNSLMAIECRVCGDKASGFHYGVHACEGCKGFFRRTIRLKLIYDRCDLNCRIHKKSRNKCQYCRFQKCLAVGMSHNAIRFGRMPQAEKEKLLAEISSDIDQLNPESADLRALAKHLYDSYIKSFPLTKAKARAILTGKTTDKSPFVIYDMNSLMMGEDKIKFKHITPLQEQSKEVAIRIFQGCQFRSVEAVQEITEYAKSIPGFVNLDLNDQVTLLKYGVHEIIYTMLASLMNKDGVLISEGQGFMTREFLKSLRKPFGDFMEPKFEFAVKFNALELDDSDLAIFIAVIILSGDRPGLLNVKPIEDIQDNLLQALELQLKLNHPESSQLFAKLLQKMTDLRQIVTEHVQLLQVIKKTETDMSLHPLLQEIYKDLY
Protocol: Incubation: 120 min. at 4° C.
The results are expressed as a percent of control specific binding ((measured specific binding/control specific binding)×100) obtained in the presence of the test compounds. The IC50 values (concentration causing a half-maximal inhibition of control specific binding) and Hill coefficients (nil) were determined by non-linear regression analysis of the competition curves generated with mean replicate values using Hill equation curve fitting (Y=D+[(A−D)/(1+(C/C50)nH)], where Y=specific binding, D=minimum specific binding, A=maximum specific binding, C=compound concentration, C50=IC50, and nH=slope factor). This analysis was performed using a software developed at Cerep (Hill software) and validated by comparison with data generated by the commercial software SigmaPlot® 4.0 for Windows® (© 1997 by SPSS Inc.). The inhibition constants (Ki) were calculated using the Cheng Prusoff equation (Ki=IC50/(1+(L/KD)), where L=concentration of radioligand in the assay, and KD=affinity of the radioligand for the receptor).

[5] = system: KKA^y mice; test: KKAy mice on high fat diet, 14-day oral gavage BID; type: in vivo, mouse
Protocol: 52 male KKA^y mice are obtained commercially (e.g., from Clea Japan) at an age of 6 weeks and put on a high fat diet upon arrival. Individual mice were housed in IVC Type II cages during both the acclimatization and the experimental phase. Both food (high fat diet) and water are supplied ad libitum.
1 animal per cage. […] Lights on at 06:00 a.m. Temperature: 21-25° C. Relative humidity target range: 55-60%.
Mice were randomized into treatment groups according to their 4-h fasting blood glucose.
4 hours after the last administration, non-fasting conditions.
Gamma irradiated high fat diet is commercially available (e.g., Research Diets, Inc. New Brunswick, N.J. (Product # D12266BI)).
Blood is collected into heparin containing glass capillaries which are subsequently centrifuged in a “Haematokrit 24” centrifuge (Hettich) at 15′200×g for 10 minutes at room temperature to obtain the hematocrit value.
The following serum parameters are determined on a COBAS INTEGRA 800 auto analyzer (Roche Diagnostics, Switzerland) using the reagents and protocols provided by the supplier.
All measurements are made on Day 14 of administration, except for the food intake and body weight measurements that are made on Day 12.

[6] = 14-day BID, enoic acid 53 mg/kg, rosiglitazone 5 mg/kg, Compounds 3 and 13 dose not stated

Row | SMILES | Inhibition of platelet aggregation (in words) [1] | Inhibition of thromboxane synthase (in words) [2] | Occlusion time [3] | Total blood flow [3] | PPARgamma binding compared with Compound A (in words) [4] | Circulating glucose levels (in words) [5, 6] | FFA (in words) [5, 6] | HbA1c levels (in words) [5, 6] | HDL (in words) ([5]; rosiglitazone 5 mg/kg BID) | Triglycerides (in words) ([5]; rosiglitazone 5 mg/kg BID)
1 | O=C(O)CC/C=C\C[C@@H]1COC(c2ccccc2Oc2ccc(F)cc2)O[C@@H]1c1ccccc1O (stereo partly shown) [Compound 4] | potent inhibitors of platelet aggregation | inhibitors of thromboxane synthase | prolongs the occlusion time | improves total blood flow | at least as well as Compound A | – | – | – | – | –
2 | CN(CCOc1ccc(CC2SC(=O)NC2=O)cc1)c1ccccn1 (stereo not shown) [Rosiglitazone] | – | – | – | – | – | decreased | decreased | decreased | increased HDL | decreased triglycerides
